These results are taken from patent publication US8524891B2, “Tetraazaporphyrin-based compounds and their uses” (Board of Supervisors of Louisiana State University and …, priority 2005, dated 2013).

This data set is described as follows: Stern-Volmer quenching analysis in RET assay. The settings on record: quenching of Zn-Pc fluorescence.

The molecule `CCN(CC)c1ccc2nc3ccc(/N=N/c4ccc(N(C)CCCC(=O)O)cc4)cc3[n+](-c3ccccc3)c2c1` [BHQ-3] returned a Stern-Volmer quenching constant of 0.0004 M⁻¹. With `[Ni+2].c1ccc2c(c1)-c1nc-2nc2[n-]c(nc3nc(nc4[n-]c(n1)c1ccccc41)-c1ccccc1-3)c1ccccc21` [Ni-Pc] the figure was 0.013 M⁻¹.
